Data as given in PubChem BioAssay AID504648 (National Center for Advancing Translational Sciences (NCATS), 2011).
“And” between values parts separate entries of the source, which are not always exact repeats. Equal values may be shown once. About 610 (0.16%) of roughly 390,000 compounds were called active. Inconclusive results, whose numbers are uncertain, are shown with a selection of clear calls. Calls follow the shape of the dose curve; as a rule, active = well fitted inhibition curve with a large enough effect; inconclusive = small, poorly fitted or top-dose-only effect, or effect the other way, or another doubt; inactive = no such curve, though single readings can be large or run the other way. A potency beside an inconclusive call is a rough fit, not a confirmed value.

Experiment: Nrf2 qHTS screen for inhibitors: counterscreen for cytotoxicity
Settings: A549 ARE-Fluc cells, CellTiter-Fluor viability, 18-24 h; activity change, negative = cytotoxicity: at 46 µM (top of the series)
Outline: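 A549 ARE-Fluc cells in 5% FBS OPTI-MEM, 5000 cells/well, rested 2 h then exposed to compounds in concentration-response for 18-24 h at 37 °C. Viability by CellTiter-Fluor fluorescence (Ex 405/Em 525) after 30 min; luciferase luminescence (BugLite, 15 min, RT) read afterwards.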
% is scaled to controls: 0 for no effect and ±100 for the full control effect; potency is read from the fitted curve at half-maximal effect.

SMILES | Potency | activity change, negative = cytotoxicity
C=CCNC(=S)NNC(=O)COc1ccc2cc(Br)ccc2c1 | inconclusive: 1.16 µM [activator, full curve, poor fit] | 
O=C(Nc1cccc(C(F)(F)F)c1)Oc1ccc(Cl)c2cccnc12 | inconclusive: 20.6 µM [falling, single point] | 
Cc1nc2c(C(=O)NCc3ccccc3Cl)cnn2c(C)c1Cc1c(F)cccc1Cl |  | inactive: -4.93%
CC(=O)NC(CC(=O)NCCCn1ccc2ccccc21)c1ccccc1 (stereo unspecified) |  | inactive: 7.45%
COc1ccc(Nc2nc(N3CCOCC3)nc(N3CCOCC3)n2)cc1 | inconclusive: 0.146 µM [activator, full curve, poor fit] | 
COc1ccc(NC(=O)c2cc3n(n2)C(C(F)(F)F)CC(c2ccco2)N3)cc1 (stereo unspecified) |  | inconclusive: -37.1% [activator]
Fc1ccc(C2CC(c3cccs3)=NN2c2ccccc2)cc1 (stereo unspecified) | inconclusive: 18.4 µM [activator, partial curve] | 
CCC1CSC(=Nc2ccc(C)cc2)N1C(=O)CN1C(=O)NC2(CCCC2)C1=O (stereo unspecified) |  | inactive: -10.9%
COC(=O)c1c(C)oc(C)c1S(=O)(=O)N(C)C1CCCCC1 |  | inactive: 1.1%
O=S(=O)(c1ccc(Br)cc1)c1nc(-c2ccccc2)oc1NCc1cccnc1 | inconclusive: 16.4 µM [falling, partial curve, poor fit] | 
COc1ccc(N2C(=O)S[C@@H]3CS(=O)(=O)C[C@@H]32)cc1 |  | inactive: 5.27%
CCCN(CCC)C(=O)CSc1nc2ccccc2c(=O)n1CC1COc2ccccc2O1 (stereo unspecified) |  | inactive: -1.93%
O=C(O)c1cc(Nc2cc(Cl)c3nonc3c2[N+](=O)[O-])ccc1O | inconclusive: 20.6 µM [falling, single point] | 
O=S(=O)(c1ccc(Br)cc1)N1CCN(c2cc(-c3ccccc3)nc3ncnn23)CC1 | inconclusive: 6.51 µM [falling, partial curve, poor fit] | 
CC1(C)CC(=O)C2=C(C1)OC1=C(C(=O)CC(C)(C)C1)C2c1ccc(O)cc1O | active: 17.8 µM | 
O=C(c1cc(-c2ccc(Cl)cc2)on1)N1CCCC1 |  | inactive: -0.55%
CCCN1CC=C2C(C#N)=C(N)C(C#N)(C#N)C(c3cc(OC)ccc3OC)C2C1 (stereo unspecified) | inconclusive: 18.4 µM [falling, partial curve, poor fit] | 
CC(C)(C)C(=O)/C=c1\[nH]c(=O)/c(=C\c2ccc(C#N)cc2)s1 | inconclusive: 16.4 µM [falling, partial curve, poor fit] | 
COC(=O)c1cc(=O)n(Cc2ccc(OC)c(OC)c2)c(=Nc2ccc(F)cc2)s1 | inconclusive: 29.1 µM [falling, single point] | 
CC(C)(C)CC(C)(C)c1ccc(O)c(CN2CCN(CCC#N)CC2)c1 | inconclusive: 29.1 µM [falling, single point] | 
Cc1nnc(NC(=O)c2sc3ccccc3c2Cl)s1 |  | inactive: -19.3%
Cc1ccc(O)c(NC(=O)CSc2n[nH]c(-c3ccccc3)n2)c1 |  | inactive: -6.18%
CCN1CCN(C(C)C(=O)NC2CCCCC2)CC1 (stereo unspecified) |  | inactive: 6.73%
Cc1ccc(N=C2NC(=O)/C(=C/C=C/c3ccco3)S2)cc1 | inconclusive: 29.1 µM [falling, partial curve, poor fit] | 

SMILES | Potency | activity change, negative = cytotoxicity
O=C(Nc1ccc2c(c1)CCC2)c1cc2ccccc2o1 | inconclusive: 25.9 µM [falling, single point] | 
COc1ccc2cc(C(=O)N/N=C/c3sc4ccccc4c3O)ccc2c1 | inconclusive: 32.6 µM [falling, partial curve, poor fit] | 
Cc1cccc(C)c1OCC(O)CN1CCC(CN2C(=O)c3cccc4cccc(c34)C2=O)CC1 (stereo unspecified) | inconclusive: 29.1 µM [falling, single point] | 
O=c1[nH]c2ccc(NCc3ccc(-c4cccc(Cl)c4)o3)cc2[nH]1 |  | inactive: 6.3%
Cc1c(/C=N/n2cnnc2)c2ccccc2n1CCOc1ccc(Cl)cc1 | inconclusive: 29.1 µM [falling, single point] | 
COc1ccc(NC(=O)CSc2c3c(nc4cc(Cl)ccc24)CCCC3)cc1OC | inconclusive: 29.1 µM [falling, single point] | 
CN1CCCN(c2ccc([N+](=O)[O-])cc2)CC1 | inconclusive: 32.6 µM [falling, partial curve, poor fit] | 
CCOc1ccc(NC(=O)CC2C(=O)N(c3ccccc3)C(=O)N2CCc2ccc(OC)cc2)cc1 (stereo unspecified) |  | inactive: -7.1%
CC(C)C[C@@H](CN1CCCC1CN1C(=S)NC[C@@H]1Cc1ccc(O)cc1)N1C[C@H](Cc2ccc(O)cc2)N(CC2CCCCC2)C1=S (stereo partly specified) |  | inactive: -15.6%
CC1CCC2C(C1)c1sc(=O)[nH]c1SC2(C)C (stereo unspecified) | inconclusive: 18.4 µM [falling, single point] | 
O=C(Nc1cc(Sc2ccccn2)cc([N+](=O)[O-])c1)c1ccc([N+](=O)[O-])cc1 | inconclusive: 16.4 µM [falling, partial curve] | 
COc1ccc(N=C(N)SCc2ccccn2)cc1 |  | inactive: -7.76%
Cc1ccc(S(=O)(=O)N2CCC[C@H]2C(=O)OCc2nc3ccccc3s2)cc1 |  | inactive: 0.917%
O=[N+]([O-])c1ccc2oc(-c3ccccc3)nc2c1 |  | inactive: 3.43%
Cc1cc(C)nc(N/N=C/c2ccccc2OCc2cccc(Br)c2)n1 |  | inactive: 2.7%
COc1ccc(C(=O)N(Cc2cccs2)Cc2cccs2)c(O)c1 |  | inactive: 2.06%
O=[N+]([O-])/C(Cl)=C(/NCCO)C(Cl)=C(Cl)Cl | inconclusive: 14.6 µM [falling, partial curve, poor fit] | 
NC(=O)CSc1oc(-c2ccco2)nc1S(=O)(=O)c1ccc(Br)cc1 | inactive | 
CCc1nnc(NC(=O)c2nc(S(=O)(=O)Cc3cccc(C)c3)ncc2Cl)s1 | inconclusive: 29.1 µM [falling, single point] and inconclusive: 20.6 µM [falling, single point] | 
CC(C)(C)C(=O)c1cn(CC(=O)NCc2ccc3c(c2)OCO3)c2ccccc12 | inconclusive: 10.3 µM [falling, partial curve, poor fit] | 
C=C(C)C1CC=C(CN2CCC(O)CC2)CC1 (stereo unspecified) | inconclusive: 29.1 µM [activator, single point] | 
CCc1nn(C(C)C(=O)NCCN2CCN(c3cccc(C)c3C)CC2)c(=O)c2cc3occc3n12 (stereo unspecified) | inconclusive: 29.1 µM [falling, single point] | 
CCN(CC)S(=O)(=O)c1cccc(NC(=O)C2CC(=O)N(c3ccc4c(c3)OCCO4)C2)c1 (stereo unspecified) |  | inactive: -14.5%
COc1ccc(/C=N\Nc2ccc([N+](=O)[O-])cc2)c(C(=O)O)c1OC | inconclusive: 23.1 µM [falling, single point] | 

SMILES | Potency | activity change, negative = cytotoxicity
Cc1csc(NC(=O)CSc2nnc3c4ccccc4nc(C(C)(C)C)n23)n1 | inconclusive: 8.2 µM [falling, partial curve, poor fit] | 
COCCCNC(=S)Nc1ccc(CC(=O)O)cc1 |  | inactive: 0.829%
CCCNC(=O)c1cc2nc(-c3ccc(Br)cc3)cc(C(F)(F)F)n2n1 |  | inactive: 1.47%
Cc1cc(C)cc(OCCn2c(C3CC(=O)N(c4ccccc4Cl)C3)nc3ccccc32)c1 (stereo unspecified) | inconclusive: 20.6 µM [falling, partial curve, poor fit] | 
CCCC(=O)OCC(=O)NCc1ccc(Cl)cc1 |  | inactive: -0.79%
COc1ccccc1NC(=O)CSCC(N)=O | inconclusive: 6.51 µM [activator, partial curve, poor fit] | 
CC(C)(C)c1ccc(C2Sc3ccccc3NC3=C2C(=O)c2ccccc23)cc1 (stereo unspecified) | inconclusive: 23.1 µM [falling, partial curve, poor fit] | 
O=C(Nc1nc2ccccc2s1)C1CCCO1 (stereo unspecified) |  | inactive: 0%
COc1cc(/C=N/NC(=O)c2ccccn2)ccc1OC(=O)c1ccccc1Br | inconclusive: 29.1 µM [falling, single point] | 
C=C1C(=O)OC2C1CCC(C)=C1C(=O)C3OC3(C)C12 (stereo unspecified) | inconclusive: 25.9 µM [falling, single point] | 
COc1ccc(CN(C)C(=O)C(Cc2ccccc2)NC(=O)c2ccccc2)cc1F (stereo unspecified) |  | inactive: -0.814%
CC12CCC(=O)C=C1CCC1C2C(O)CC2(C)C1CCC21OCC1=O (stereo unspecified) |  | inactive: -7.55%
CCCCOc1ccc(-c2nnn(CC(=O)Nc3ncc(CC(=O)OCC)s3)n2)cc1 | inconclusive: 29.1 µM [falling, single point] | 
Cc1ccc(-n2ncc(C(=O)NCCCN3CCc4ccccc4C3)c2C2CCN(C(=O)OC(C)(C)C)CC2)c(C)c1 | inconclusive: 23.1 µM [falling, partial curve, poor fit] | 
Cc1ccc(/C=C2/SC(=O)NC2=S)o1 |  | inactive: -23.9%
O=C(N/N=C/c1cccs1)c1ccc2ccccc2c1 | inconclusive: 29.1 µM [falling, single point] | 
CN(CC(=O)Nc1ccc(F)cc1)C(=O)CSc1nncs1 | inconclusive: 29.1 µM [falling, single point] | 
COc1ccc2nc(SCC(=O)Nc3ccc4sc(C)nc4c3)c(C#N)cc2c1 | inconclusive: 0.291 µM [activator, partial curve, poor fit] | 
Cc1ccc(-c2nn(-c3ccccc3)cc2CN(Cc2ccccc2)C(=O)c2ccco2)o1 | inconclusive: 29.1 µM [falling, single point] | 
CCN1CCN(c2cc(SC(C)C)nc(-c3ccc(OC)cc3)n2)CC1 | inconclusive: 20.6 µM [falling, single point] | 
CCc1ccc(N2CC(C(=O)NCCC3=CCCCC3)CC2=O)cc1 (stereo unspecified) |  | inactive: -2.98%
CCCCOc1ccc(S(=O)(=O)NNC(=O)C2Cc3c(ccc4ccccc34)O2)cc1 (stereo unspecified) | inconclusive: 6.51 µM [falling, single point] | 
CC(C)(C)OC(=O)CNC(=O)c1[nH]cnc1C(=O)NCCCCCNC(=O)OC(C)(C)C |  | inactive: -14.1%

A draw from above in order of molar mass, low to high:
SMILES | Potency | activity change, negative = cytotoxicity
COCCCNC(=S)Nc1ccc(CC(=O)O)cc1 |  | inactive: 0.829%
CCc1ccc(N2CC(C(=O)NCCC3=CCCCC3)CC2=O)cc1 (stereo unspecified) |  | inactive: -2.98%
Cc1csc(NC(=O)CSc2nnc3c4ccccc4nc(C(C)(C)C)n23)n1 | inconclusive: 8.2 µM [falling, partial curve, poor fit] | 
